# Reference: PubChem BioAssay AID1159584 (Peter MacCallum Cancer Centre, 2016)
# Screen: 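Genes that CDH1-null MCF10A cells selectively depend on to survive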 (primary screen)
# Cells: human MCF10A breast epithelial cells, parental and CDH1-null
# Knock-down reagent: siRNA against human genes
# Detection: 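Cell viability by CellTiter-Glo ATP luminescence, each line scaled to the mean of mock wells across plates, then CDH1-null over parental ratio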
# Direction: CDH1-null / parental viability ratio: higher = CDH1-null cells survive relatively better than parental; CDH1-null viability vs mock: higher = more viable CDH1-null cells; parental viability vs mock: higher = more viable parental cells
# In all, the deposit lists about 18,000 reagents; below is an unselected part. No sequences are given here. The record does not give: the amount of reagent, the time to read-out.
Gene,CDH1-null / parental viability ratio,CDH1-null viability vs mock (fraction of mock),parental viability vs mock (fraction of mock)
RELN,1.08,0.8,0.74
EIF4E,0.96,0.76,0.79
MRPS21,1.43,0.66,0.46
YY1AP1,0.88,0.91,1.03
FMNL3,1.03,1.01,0.98
OPA3,0.9,0.74,0.82
MGAT1,0.92,0.9,0.98
GXYLT2,1.13,0.78,0.69
DCAF7,0.72,0.5,0.69
PAGE3,1.41,0.65,0.46
LNPEP,1.16,0.74,0.64
TRIM63,1,0.9,0.9
FANCC,0.77,0.48,0.62
CPNE5,0.82,0.66,0.8
CRYBA4,0.92,0.8,0.87
NANOS2,1.12,1.04,0.93
CRABP2,0.97,0.9,0.93
ZNF284,0.93,0.63,0.68
PPP2R3C,1.03,0.8,0.78
PALD1,1.15,0.94,0.82
ATPSCKMT,1.27,0.76,0.6
ZNF583,2.08,1,0.48
LIN28B,0.93,0.85,0.91
MCM4,0.95,0.78,0.82
RBPMS2,1.29,0.66,0.51
RFXANK,1.04,0.81,0.78
GPR146,1.32,1.12,0.85
MUC7,1.12,0.76,0.68
EHF,1.03,1.12,1.09
GNGT2,0.92,0.66,0.72
TAB3,0.97,0.58,0.6
TSGA10IP,0.91,0.87,0.96
PGD,1.16,0.8,0.69
LRIG1,1.18,0.9,0.76
ITPKA,0.89,0.68,0.76
BEST1,0.77,0.54,0.7
SSR3,1.2,0.96,0.8
FCGR2A,0.95,0.8,0.84
CSNK1A1L,0.82,0.88,1.07
TRIM48,0.93,0.95,1.02
TMEM95,1.06,0.85,0.8
SARNP,1.14,0.84,0.74
OR8D4,0.91,0.88,0.97
USP48,1.12,0.9,0.8
TSR2,0.84,0.52,0.62
MCTP1,1.09,0.85,0.78
OR11G2,1.05,0.88,0.84
PHF19,0.9,0.92,1.02
SYT13,1.14,0.88,0.77
FCRL6,0.9,0.72,0.8
NCKAP5,1.04,0.55,0.53
TDO2,0.97,0.74,0.76
NMU,0.98,0.9,0.92
NRP2,1.45,0.93,0.64
VRK2,0.97,0.91,0.94
DTX1,0.92,0.7,0.76
PRY2,1.23,0.37,0.3
MRPS26,1.45,0.84,0.58
GPR155,0.89,0.84,0.94
DNAJB2,1.22,0.9,0.74
FGF2,1,1,1
CXorf38,1.15,1.26,1.1
CLBA1,1.07,0.92,0.86
CLEC17A,0.74,0.52,0.7
HUWE1,1.06,0.76,0.72
HOMER3,1.39,0.75,0.54
CARS1,0.92,0.83,0.9
GOLGA8B,0.92,0.72,0.78
TMEM39A,1.14,0.82,0.72
UHRF1,0.93,0.77,0.83
SFXN4,1.02,0.88,0.86
AMIGO3,0.82,0.54,0.66
ZZZ3,1.09,0.47,0.43
GUF1,0.81,0.68,0.84
SYNJ2,1.23,0.87,0.71
RNF180,1.01,0.96,0.95
CERT1,0.8,0.82,1.02
FGD6,0.89,0.64,0.72
NOD2,0.94,0.6,0.64
RAD51B,0.97,0.74,0.76
ACAP3,0.94,0.8,0.85
HSF2BP,1.11,0.98,0.88
CXCL9,1.29,0.49,0.38
CIAO1,0.93,0.84,0.9
PGM2,0.8,0.48,0.6
MED12,1.03,0.66,0.64
DOCK2,0.85,0.68,0.8

Single entries from the entries so far.
Under “CDH1-null / parental viability ratio”, NOD2 reads 0.94
LRIG1, parental viability vs mock (fraction of mock) = 0.76
TDO2, CDH1-null / parental viability ratio: 0.97
BEST1, CDH1-null / parental viability ratio = 0.77
GXYLT2, CDH1-null viability vs mock (fraction of mock): 0.78
VRK2, CDH1-null / parental viability ratio = 0.97
